This is an account of results in article PMC7819943, “Rice protein-binding microarrays: a tool to detect cis-acting elements near promoter regions in rice”.

By UniProt entry, the sequences of proteins in these tests, tags left out.
UniProt Q0JBA9, entry or part of it: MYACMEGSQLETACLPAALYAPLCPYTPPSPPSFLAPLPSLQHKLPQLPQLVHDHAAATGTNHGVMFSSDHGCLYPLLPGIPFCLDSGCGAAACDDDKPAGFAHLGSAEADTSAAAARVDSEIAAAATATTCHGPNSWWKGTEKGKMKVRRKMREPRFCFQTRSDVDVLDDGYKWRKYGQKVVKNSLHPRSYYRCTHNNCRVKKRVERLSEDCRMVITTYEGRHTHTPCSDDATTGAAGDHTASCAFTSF

This is one part of the list.

The test deals with OsWRKY34 (Oryza sativa, UniProt Q0JBA9 1-250). Description: protein-binding microarray (RPBM); PBS, 2% BSA, 51.3 ng/ul salmon testes DNA, 50 uM zinc acetate, 200 nM TF, 25 C, 1 h; high values mean tight binding. To be noted: protein: recombinant; tags: N-terminal polyhistidine and DsRed monomer fusion (pET32a); label: CyDye5-dUTP incorporated in the synthesized complementary strand; 3' TTTTT single-stranded linker to array surface; dsDNA, one strand shown. The method, boiled down: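 A custom Agilent array was converted to double-stranded form by primer extension with Cy5-dUTP and blocked with 2% BSA. Protein at 200 nM in PBS with 2% BSA, salmon testes DNA and 50 µM zinc acetate was applied for 1 h at 25 °C, followed by washing. The proteins were polyhistidine–DsRed N-terminal fusions of transcription factors, expressed in E. coli BL21-CodonPlus and Ni–NTA-purified. The binding signal is per-feature fluorescence intensity (arbitrary units) from an Axon 4000B scanner.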
Consider “TTTTGCTTCTCCTGCGTCCTGCCTCTCTCGTTTCTGTAAGCGGAGTCACCTAGTGCAG”, for which the binding signal is 11800 fluorescence intensity (a.u.). Under “GATATGAAATCTCGCATTGTTTGGTACTATTCGTTCCAGACGGAGTCACCTAGTGCAG” stands 8660 fluorescence intensity (a.u.); under “GCCACCACCACCCACCGCCGCCGCCGCCACCGCAAACTCTCGGAGTCACCTAGTGCAG”, 8050 fluorescence intensity (a.u.). As for “CACGAGGTGATTTAATTTGGTTGTGTTTCAGCTTTTTAAACGGAGTCACCTAGTGCAG”, the figure is 9360 fluorescence intensity (a.u.); as for “TCTTCCACCTGCCTTGTGCGTCCCTTCTAACTCACCTTGTCGGAGTCACCTAGTGCAG”, 8310 fluorescence intensity (a.u.); as for “GGGGTGACATTTCAATTGTTTTTCTCTTATATTTGTAATCCGGAGTCACCTAGTGCAG”, 20100 fluorescence intensity (a.u.). As for “TAATATCCGATGTGACATGCCAAAACTTTACACCCCTAATCGGAGTCACCTAGTGCAG”, the figure is 8330 fluorescence intensity (a.u.); as for “TCTGCCACCTTTGAAAGGTTCCGTCATCATGCACCAGTTTCGGAGTCACCTAGTGCAG”, 8450 fluorescence intensity (a.u.). Take “TGATTTATGAATTATGATTACTAATACTGTTTTTTGTCCTCGGAGTCACCTAGTGCAG”: the binding signal is 8780 fluorescence intensity (a.u.). Turning to “CGCGCCGTGCGCCACTCTGCCAACCGCGCTCCGCCGCCGCCGGAGTCACCTAGTGCAG”, the binding signal was 8100 fluorescence intensity (a.u.). On to “TGTAATTAACTTTTTTTGTCTATATTTAATACTCTATATACGGAGTCACCTAGTGCAG”, for which the binding signal was 8640 fluorescence intensity (a.u.).

Regarding “GTCTGCTCCTCTGGTGAAAATTTGTGCTGTTCAAATAATTCGGAGTCACCTAGTGCAG”, the binding signal was 8370 fluorescence intensity (a.u.).

Consider “TTGGGTGCTATCCTGTTCTTGTGTTGTGATTCAATTAATTCGGAGTCACCTAGTGCAG”, for which the binding signal is 14400 fluorescence intensity (a.u.). Under “ACTGCCACTACACACACCTCACAAACCCACAACAAGACGTCGGAGTCACCTAGTGCAG” stands 9500 fluorescence intensity (a.u.). For “TAATATATTCCTCGAGGGACATCACTTATTGTTTACGTGTCGGAGTCACCTAGTGCAG”, the binding signal was 9840 fluorescence intensity (a.u.). As for “TCTCTTCTGACCACTGCGGGCTGTACCCTCTGCCGGCGCTCGGAGTCACCTAGTGCAG”, the figure is 9250 fluorescence intensity (a.u.). “CCGCCACCCGAATCGCTACGCGCCTTGCCTTTTTACCACCCGGAGTCACCTAGTGCAG”: the binding signal is 10300 fluorescence intensity (a.u.). Under “CCTCTTTCTCTCTCCTCAGTCATCTCTCACTCTTCTTCTTCGGAGTCACCTAGTGCAG” stands 8540 fluorescence intensity (a.u.); under “CACAACCATTCTCTATTTAATTTCTTCGCTTACTTTCTCTCGGAGTCACCTAGTGCAG”, 9290 fluorescence intensity (a.u.); under “GCTATCCCACATTCCAAACTCCATGTCCAACCATCCAATTCGGAGTCACCTAGTGCAG”, 9150 fluorescence intensity (a.u.). Under “ATGTTGACACATCTTAATACTATGAATCTCGTTACATTCGCGGAGTCACCTAGTGCAG” stands 9310 fluorescence intensity (a.u.); under “GGGGTTTGACAGTGGGGTGGAGAGGACAAGTAAACAGTGGCGGAGTCACCTAGTGCAG”, 8860 fluorescence intensity (a.u.); under “CAATTCATTTCGTCGTTTAGCGTGCTAGTCTACTTCACCTCGGAGTCACCTAGTGCAG”, 10700 fluorescence intensity (a.u.). As for “TCGTCATCATCCTCGCCGCCATCGCCATCGCCATTGCCTACGGAGTCACCTAGTGCAG”, the figure is 9180 fluorescence intensity (a.u.); as for “CAGATCCCTTTCTTCCTCACGACTCCTGGATTTTTATAAACGGAGTCACCTAGTGCAG”, 8280 fluorescence intensity (a.u.). For “TGTGATATGTTCCTGTGAGCTGTCCCTCATCTAATTACCCCGGAGTCACCTAGTGCAG”, the binding signal was 8440 fluorescence intensity (a.u.). As for “GGCGGAGCTCGGGATGTGGGAGGAGGAGGGCTATTTATTCCGGAGTCACCTAGTGCAG”, the figure is 14400 fluorescence intensity (a.u.); as for “CACTCGCACTCGCACTCGCACTCGCACCACCAAACGTCGCCGGAGTCACCTAGTGCAG”, 13500 fluorescence intensity (a.u.); as for “CATGTCCTTCAAGTTCATATTATCGCATCTTGTTTTTAAGCGGAGTCACCTAGTGCAG”, 9470 fluorescence intensity (a.u.). Under “CATGATGCAGTTCACGCACACCGCGCCACCTCCACCGCCTCGGAGTCACCTAGTGCAG” stands 8650 fluorescence intensity (a.u.); under “ATTTGGTTTTTACTGTACATTACCAGCGTGTTTTTTTTTTCGGAGTCACCTAGTGCAG”, 8950 fluorescence intensity (a.u.); under “CTATGACGTGTTCTGTTCGGAGGCCTCGATTCCAATTCGACGGAGTCACCTAGTGCAG”, 8720 fluorescence intensity (a.u.).

With “GGCTGCGTTTCTAGTGTAGTTCGTTTCGAGTTGACCCTGACGGAGTCACCTAGTGCAG”, the binding signal was 10000 fluorescence intensity (a.u.). As to “CGCCCAGATTATTTTTTACTACTACTGAAGCCAAGCACTGCGGAGTCACCTAGTGCAG”, the binding signal was 8130 fluorescence intensity (a.u.). Under “ATTGTTTGGGCATTTTCCTAATTTTTCTTCAGATTTTAAACGGAGTCACCTAGTGCAG” stands 8500 fluorescence intensity (a.u.).

For the sequence “TTTGTTTGGGTAGTTCTTTATTTAGGTAGTAGCACAGCTTCGGAGTCACCTAGTGCAG”, the binding signal was 9830 fluorescence intensity (a.u.). Take “GGCACATGGTCTTCTTTACCGCTTCCATTATTTCCGTCAGCGGAGTCACCTAGTGCAG”: the binding signal is 9660 fluorescence intensity (a.u.). Regarding “AGGTGGTTTACTATTAATCAGTCTATTGCTGAGATGTACACGGAGTCACCTAGTGCAG”, the binding signal is 8130 fluorescence intensity (a.u.). As for “ACTCATTTTACTATGCGTCTCTACCTTTTTCTTCTACCCGCGGAGTCACCTAGTGCAG”, the figure is 9850 fluorescence intensity (a.u.); as for “TTGCATTCTATTTTTCTTTTTTGTCTTTGATGTTCTTTTGCGGAGTCACCTAGTGCAG”, 11900 fluorescence intensity (a.u.); as for “GTTGGAATCCCCTACGAAATCCGGCCGCCGCCTCTGACCTCGGAGTCACCTAGTGCAG”, 8670 fluorescence intensity (a.u.).

As for “TTTGTTGGAAGTATTGATCTTTTTTCCTTTGCTTTTTGTCCGGAGTCACCTAGTGCAG”, the binding signal is 9290 fluorescence intensity (a.u.).
